Assay results published in publication PMC7996975.
These are yes or no findings as the source states them, for the method shown. Binding seen in cells or lysates may run through a third protein. Some entries that bind do so weakly or less than the wild type. For some assays here: Tags and fused reporters may be left off the sequences shown.

Sequences of proteins named here, by UniProt entry; tags and fusion partners are left off.
UniProt P62258: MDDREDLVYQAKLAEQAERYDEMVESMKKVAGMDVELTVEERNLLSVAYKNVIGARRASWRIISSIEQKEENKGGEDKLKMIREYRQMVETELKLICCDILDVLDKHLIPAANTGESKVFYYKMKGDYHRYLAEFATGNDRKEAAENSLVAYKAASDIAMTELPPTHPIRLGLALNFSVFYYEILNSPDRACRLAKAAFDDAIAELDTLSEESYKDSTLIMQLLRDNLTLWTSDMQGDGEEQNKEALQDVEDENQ
UniProt P62259: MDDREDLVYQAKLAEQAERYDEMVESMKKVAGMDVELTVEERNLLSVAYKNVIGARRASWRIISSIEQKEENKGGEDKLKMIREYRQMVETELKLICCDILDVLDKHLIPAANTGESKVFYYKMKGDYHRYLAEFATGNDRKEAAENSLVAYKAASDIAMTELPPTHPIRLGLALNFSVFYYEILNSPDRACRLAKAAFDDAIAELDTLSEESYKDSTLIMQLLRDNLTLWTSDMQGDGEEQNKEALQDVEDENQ

Key:
Myc-RIG-I = biological target: T1, Myc-RIG-I (UniProt O95786); experiment: co-IP
T1 sequence: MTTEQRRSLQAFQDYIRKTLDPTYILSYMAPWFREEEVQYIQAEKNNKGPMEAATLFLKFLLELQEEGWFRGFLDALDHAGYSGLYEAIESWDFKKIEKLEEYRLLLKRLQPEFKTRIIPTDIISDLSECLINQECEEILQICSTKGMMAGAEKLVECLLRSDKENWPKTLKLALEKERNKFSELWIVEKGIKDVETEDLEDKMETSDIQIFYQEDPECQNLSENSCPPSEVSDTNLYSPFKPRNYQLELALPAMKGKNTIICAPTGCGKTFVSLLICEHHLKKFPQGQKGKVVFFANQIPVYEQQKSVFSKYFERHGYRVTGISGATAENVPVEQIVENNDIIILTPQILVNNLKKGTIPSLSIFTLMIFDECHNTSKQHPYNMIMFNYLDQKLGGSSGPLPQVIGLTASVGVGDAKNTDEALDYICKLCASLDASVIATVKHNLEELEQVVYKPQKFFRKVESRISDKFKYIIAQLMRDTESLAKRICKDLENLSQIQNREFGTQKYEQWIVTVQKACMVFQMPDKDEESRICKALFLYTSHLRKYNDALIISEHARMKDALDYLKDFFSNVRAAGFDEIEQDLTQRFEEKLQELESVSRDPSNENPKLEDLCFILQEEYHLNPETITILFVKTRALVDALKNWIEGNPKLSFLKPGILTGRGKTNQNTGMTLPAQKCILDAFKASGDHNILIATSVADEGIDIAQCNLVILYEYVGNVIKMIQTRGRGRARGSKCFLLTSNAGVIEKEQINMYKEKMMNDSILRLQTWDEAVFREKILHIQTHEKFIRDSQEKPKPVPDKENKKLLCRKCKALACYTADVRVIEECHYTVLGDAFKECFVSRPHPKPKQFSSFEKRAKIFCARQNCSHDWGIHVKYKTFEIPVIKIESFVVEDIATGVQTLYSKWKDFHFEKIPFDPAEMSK

[1] = biological target: T2, endogenous RIG-I of MEFs (mouse (endogenous in MEFs)) (UniProt Q6Q899); experiment: co-IP
T2 sequence: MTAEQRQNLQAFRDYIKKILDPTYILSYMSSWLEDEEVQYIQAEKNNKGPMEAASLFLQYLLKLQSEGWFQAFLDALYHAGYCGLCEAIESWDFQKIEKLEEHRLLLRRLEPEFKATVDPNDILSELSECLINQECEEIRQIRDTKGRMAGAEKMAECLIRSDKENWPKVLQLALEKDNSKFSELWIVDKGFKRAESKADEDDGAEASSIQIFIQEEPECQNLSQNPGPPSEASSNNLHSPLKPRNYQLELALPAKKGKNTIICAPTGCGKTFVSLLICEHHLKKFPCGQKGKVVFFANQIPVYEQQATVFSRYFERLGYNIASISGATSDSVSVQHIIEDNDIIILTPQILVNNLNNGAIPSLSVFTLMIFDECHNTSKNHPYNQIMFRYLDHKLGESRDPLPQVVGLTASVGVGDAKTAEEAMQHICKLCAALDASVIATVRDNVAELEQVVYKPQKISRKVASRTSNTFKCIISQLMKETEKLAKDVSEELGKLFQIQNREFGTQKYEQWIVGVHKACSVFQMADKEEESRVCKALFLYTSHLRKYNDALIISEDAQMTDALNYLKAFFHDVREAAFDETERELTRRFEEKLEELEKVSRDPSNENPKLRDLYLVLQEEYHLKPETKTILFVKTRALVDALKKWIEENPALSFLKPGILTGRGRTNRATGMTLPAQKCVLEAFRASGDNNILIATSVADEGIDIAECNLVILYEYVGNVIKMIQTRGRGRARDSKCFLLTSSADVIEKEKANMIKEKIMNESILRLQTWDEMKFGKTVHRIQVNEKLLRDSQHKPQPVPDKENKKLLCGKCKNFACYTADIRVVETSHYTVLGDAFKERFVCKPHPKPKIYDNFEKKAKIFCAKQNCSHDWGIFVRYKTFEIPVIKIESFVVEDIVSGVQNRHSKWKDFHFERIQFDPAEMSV

| Substance | binding (Myc-RIG-I) | binding [1] |
| --- | --- | --- |
| endogenous 14-3-3ε of HEK-293T cells (from UniProt P62258 1-255) | binds | – |
| endogenous 14-3-3ε of MEFs (from UniProt P62259 1-255) | – | binds |
